Values from PubChem BioAssay AID1224830 (NIAID, 2016)
The deposit covers about 18,000 reagents; shown is a part drawn at random. About 2,900 of all reagents (16%) count as active. 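Calls are made per well; low scores hint the gene aids the LPS response, high scores that it dampens it.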 Repeated entries: four replicate wells of each siRNA pool.

- Aim: 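Host factors that control LPS-induced TNF expression in human macrophages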 (primary screen)
- Cell system: human THP-1 monocytic leukaemia cells, TNF dual-luciferase reporter clone, PMA-differentiated to macrophage-like cells
- Knock-down reagent: siRNA pool against human genes, 50 nM
- Timing: LPS for 4 h, given about 3 days after siRNA transfection
- Conditions: bacterial LPS (TLR4 ligand), 10 ng/ml
- Read-out: 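TNF firefly reporter luminescence divided by renilla, normalised to the plate median, then turned into a robust z-score for each replicate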
- Reading the numbers: TNF reporter robust z-score: higher = stronger TNF reporter response to LPS
- Rule for the call: 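Each well counts as active if its z-score is over 2.8 or under -1.5; controls are left without a call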

| gene | TNF reporter robust z-score | activity call |
| --- | --- | --- |
| ARL8A (ARF like GTPase 8A) | 0.03 | inactive |
| ARL8A (ARF like GTPase 8A) | 2.38 | inactive |
| ARL8A (ARF like GTPase 8A) | 1.82 | inactive |
| ARL8A (ARF like GTPase 8A) | 2.01 | inactive |
| RLIM (ring finger protein, LIM domain interacting) | -1.66 | active |
| RLIM (ring finger protein, LIM domain interacting) | -1.96 | active |
| RLIM (ring finger protein, LIM domain interacting) | -0.64 | inactive |
| RLIM (ring finger protein, LIM domain interacting) | 0.32 | inactive |
| EID1 (EP300 interacting inhibitor of differentiation 1) | -0.58 | inactive |
| EID1 (EP300 interacting inhibitor of differentiation 1) | 0.92 | inactive |
| EID1 (EP300 interacting inhibitor of differentiation 1) | -0.11 | inactive |
| EID1 (EP300 interacting inhibitor of differentiation 1) | 0.07 | inactive |
| PBX2 (PBX homeobox 2) | -0.71 | inactive |
| PBX2 (PBX homeobox 2) | -0.48 | inactive |
| PBX2 (PBX homeobox 2) | -0.94 | inactive |
| PBX2 (PBX homeobox 2) | -0.83 | inactive |
| PRDM2 (PR/SET domain 2) | -0.61 | inactive |
| PRDM2 (PR/SET domain 2) | 0.7 | inactive |
| PRDM2 (PR/SET domain 2) | 0.36 | inactive |
| PRDM2 (PR/SET domain 2) | -0.13 | inactive |
| ACOXL (acyl-CoA oxidase like) | 0.6 | inactive |
| ACOXL (acyl-CoA oxidase like) | 1.11 | inactive |
| ACOXL (acyl-CoA oxidase like) | 0.76 | inactive |
| ACOXL (acyl-CoA oxidase like) | 1.89 | inactive |
| HECTD2 (HECT domain E3 ubiquitin protein ligase 2) | 0.34 | inactive |
| HECTD2 (HECT domain E3 ubiquitin protein ligase 2) | 1.42 | inactive |
| HECTD2 (HECT domain E3 ubiquitin protein ligase 2) | -0.02 | inactive |
| HECTD2 (HECT domain E3 ubiquitin protein ligase 2) | -0.09 | inactive |
| FKBP1B (FKBP prolyl isomerase 1B) | -1.13 | inactive |
| FKBP1B (FKBP prolyl isomerase 1B) | -0.44 | inactive |
| FKBP1B (FKBP prolyl isomerase 1B) | -0.74 | inactive |
| CDK1 (cyclin dependent kinase 1) | -1.03 | inactive |
| CDK1 (cyclin dependent kinase 1) | -0.69 | inactive |
| CDK1 (cyclin dependent kinase 1) | 0.5 | inactive |
| CDK1 (cyclin dependent kinase 1) | -0.55 | inactive |
| RPS7 (ribosomal protein S7) | -0.59 | inactive |
| RPS7 (ribosomal protein S7) | 1.15 | inactive |
| RPS7 (ribosomal protein S7) | -0.34 | inactive |
| RPS7 (ribosomal protein S7) | 0.59 | inactive |
| ARC (activity regulated cytoskeleton associated protein) | -0.52 | inactive |
| ARC (activity regulated cytoskeleton associated protein) | -0.32 | inactive |
| ARC (activity regulated cytoskeleton associated protein) | -0.99 | inactive |
| ARC (activity regulated cytoskeleton associated protein) | -0.54 | inactive |
| EXTL2 (exostosin like glycosyltransferase 2) | -0.09 | inactive |
| EXTL2 (exostosin like glycosyltransferase 2) | 1.99 | inactive |
| EXTL2 (exostosin like glycosyltransferase 2) | 0.23 | inactive |
| EXTL2 (exostosin like glycosyltransferase 2) | 1.5 | inactive |
| SULT4A1 (sulfotransferase family 4A member 1) | 0.4 | inactive |
| SULT4A1 (sulfotransferase family 4A member 1) | -0.08 | inactive |
| SULT4A1 (sulfotransferase family 4A member 1) | -0.29 | inactive |
| SULT4A1 (sulfotransferase family 4A member 1) | 0.66 | inactive |
| ADIPOR2 (adiponectin receptor 2) | -0.34 | inactive |
| ADIPOR2 (adiponectin receptor 2) | -0.4 | inactive |
| ADIPOR2 (adiponectin receptor 2) | 0.22 | inactive |
| ADIPOR2 (adiponectin receptor 2) | 1.54 | inactive |
| GYS2 (glycogen synthase 2) | -1.57 | active |
| GYS2 (glycogen synthase 2) | -1.21 | inactive |
| GYS2 (glycogen synthase 2) | -1.61 | active |
| GYS2 (glycogen synthase 2) | -0.69 | inactive |
| OR4C6 (olfactory receptor family 4 subfamily C member 6) | 3.43 | active |
| OR4C6 (olfactory receptor family 4 subfamily C member 6) | -0.73 | inactive |
| OR4C6 (olfactory receptor family 4 subfamily C member 6) | 0.78 | inactive |
| OR4C6 (olfactory receptor family 4 subfamily C member 6) | 0.85 | inactive |
| DUSP14 (dual specificity phosphatase 14) | 0.21 | inactive |
| DUSP14 (dual specificity phosphatase 14) | 0.69 | inactive |
| DUSP14 (dual specificity phosphatase 14) | -0.24 | inactive |
| DUSP14 (dual specificity phosphatase 14) | -0.04 | inactive |
| CCDC106 (coiled-coil domain containing 106) | 1.59 | inactive |
| CCDC106 (coiled-coil domain containing 106) | 0.59 | inactive |
| CCDC106 (coiled-coil domain containing 106) | 2.89 | active |
| CCDC106 (coiled-coil domain containing 106) | 1.98 | inactive |
| NUB1 (negative regulator of ubiquitin like proteins 1) | 1.25 | inactive |
| NUB1 (negative regulator of ubiquitin like proteins 1) | 0.62 | inactive |
| NUB1 (negative regulator of ubiquitin like proteins 1) | 2.23 | inactive |
| NUB1 (negative regulator of ubiquitin like proteins 1) | 0.68 | inactive |
| AKAP17A (A-kinase anchoring protein 17A) | -1.62 | active |
| AKAP17A (A-kinase anchoring protein 17A) | -1.57 | active |
| AKAP17A (A-kinase anchoring protein 17A) | -0.59 | inactive |
| AKAP17A (A-kinase anchoring protein 17A) | -0.49 | inactive |
| CCDC97 (coiled-coil domain containing 97) | -1.29 | inactive |
| CCDC97 (coiled-coil domain containing 97) | -0.6 | inactive |
| CCDC97 (coiled-coil domain containing 97) | -0.96 | inactive |
| CCDC97 (coiled-coil domain containing 97) | 0.2 | inactive |
| QRFP (pyroglutamylated RFamide peptide) | -0.66 | inactive |
| QRFP (pyroglutamylated RFamide peptide) | -0.24 | inactive |
| QRFP (pyroglutamylated RFamide peptide) | -0.83 | inactive |
| QRFP (pyroglutamylated RFamide peptide) | 1.26 | inactive |
| VSIR (V-set immunoregulatory receptor) | 0.95 | inactive |
| VSIR (V-set immunoregulatory receptor) | -0.02 | inactive |
| VSIR (V-set immunoregulatory receptor) | 1.1 | inactive |
| VSIR (V-set immunoregulatory receptor) | 0.5 | inactive |
| GNG11 (G protein subunit gamma 11) | 0.19 | inactive |
| GNG11 (G protein subunit gamma 11) | -0.13 | inactive |
| GNG11 (G protein subunit gamma 11) | 1.74 | inactive |
| GNG11 (G protein subunit gamma 11) | -0.03 | inactive |
| PER3 (period circadian regulator 3) | 0.15 | inactive |
| PER3 (period circadian regulator 3) | 0.73 | inactive |
| PER3 (period circadian regulator 3) | 1.38 | inactive |
| PER3 (period circadian regulator 3) | 1.94 | inactive |
| OR4D5 (olfactory receptor family 4 subfamily D member 5) | -0.05 | inactive |
| OR4D5 (olfactory receptor family 4 subfamily D member 5) | 0.18 | inactive |
| OR4D5 (olfactory receptor family 4 subfamily D member 5) | 0.17 | inactive |
| OR4D5 (olfactory receptor family 4 subfamily D member 5) | 0.15 | inactive |
| ARL16 (ARF like GTPase 16) | 0.1 | inactive |
| ARL16 (ARF like GTPase 16) | -0.29 | inactive |
| ARL16 (ARF like GTPase 16) | 0.15 | inactive |
| ARL16 (ARF like GTPase 16) | -0.28 | inactive |
| S1PR5 (sphingosine-1-phosphate receptor 5) | -1.44 | inactive |
| S1PR5 (sphingosine-1-phosphate receptor 5) | -0.9 | inactive |
| S1PR5 (sphingosine-1-phosphate receptor 5) | -0.28 | inactive |
| S1PR5 (sphingosine-1-phosphate receptor 5) | 0.12 | inactive |

Targets listed so far whose target name begins with O or o:
| gene | TNF reporter robust z-score | activity call |
| --- | --- | --- |
| OR4C6 (olfactory receptor family 4 subfamily C member 6) | 3.43 | active |
| OR4C6 (olfactory receptor family 4 subfamily C member 6) | -0.73 | inactive |
| OR4C6 (olfactory receptor family 4 subfamily C member 6) | 0.78 | inactive |
| OR4C6 (olfactory receptor family 4 subfamily C member 6) | 0.85 | inactive |
| OR4D5 (olfactory receptor family 4 subfamily D member 5) | -0.05 | inactive |
| OR4D5 (olfactory receptor family 4 subfamily D member 5) | 0.18 | inactive |
| OR4D5 (olfactory receptor family 4 subfamily D member 5) | 0.17 | inactive |
| OR4D5 (olfactory receptor family 4 subfamily D member 5) | 0.15 | inactive |
